PubChem BioAssay AID493246 – Drosophila RNAi Screening Center – 2011
Screen: 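Genome-wide search for dsRNAs that reduce cell number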 (primary screen). System: Drosophila Kc and S2R+ cells. Knock-down reagent: long dsRNA against Drosophila genes. Measured: 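Raw, unnormalised count of remaining cells in each well; per-plate z-scores of cell number underlie the calls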. Direction: Kc cell number and S2R+ cell number: higher = more cells remaining. Hit rule: 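Active when the per-plate z-score of cell number is 3 or more in the direction of fewer cells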.
In all, the deposit lists about 21,000 reagents; this is an unselected part of those with a known target gene and a result. Over the whole deposit, 429 (2%) were called active. 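Values are raw and not normalised between plates; calls rest on per-plate z-scores that were not deposited.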 Unmarked entries are inactive. A plus sign joins genes that one reagent is predicted to hit. The record does not give: the amount of reagent, the time to read-out.

gene	amplicon	Kc cell number, rep 1	Kc cell number, rep 2	S2R+ cell number, rep 1	S2R+ cell number, rep 2
CG34193	DRSC05665	5.27e5		7.73e5	
CG14491	DRSC06462	1.55e6	1.62e6	1.27e6	1.35e6
CG7737	DRSC07033	1.25e6	1.36e6	1.11e6	1.15e6
CG3610	DRSC15502	1.27e6	1.37e6	1.18e6	1.28e6
CG7884	DRSC20065	1.32e6	1.43e6	1.10e6	1.13e6
Ktl (Kctd12-like)	DRSC14270	1.63e6	1.81e6	1.24e6	1.27e6
CG7025	DRSC03002	1.59e6	1.70e6	1.17e6	1.42e6
beat-Ib (beaten path Ib)	DRSC03490	1.59e6	1.63e6	1.26e6	1.43e6
CG13675	DRSC08908	1.41e6	1.40e6	8.81e5	1.00e6
CG13675	DRSC10034	1.02e6 (active)	1.05e6	6.08e5	7.02e5
CG11970	DRSC14157	1.83e6	1.95e6	1.55e6	1.53e6
Mtpbeta (Mitochondrial trifunctional protein beta subunit)	DRSC04663	1.35e6	1.38e6	1.10e6	9.84e5
CG18530	DRSC15341	1.54e6	1.67e6	1.38e6	1.51e6
CG11523	DRSC11669	1.47e6	1.48e6	1.31e6	1.29e6
CG9775	DRSC12330	1.71e6	1.62e6	1.40e6	1.49e6
CG34015	DRSC19140	1.23e6	1.33e6	1.07e6	1.18e6
NimC3 (Nimrod C3)	DRSC03556	1.54e6	1.60e6	1.24e6	1.40e6
Nop17l (Nop17 like)	DRSC06556	1.32e6	1.42e6	1.10e6	1.17e6
Pyroxd1 (Pyridine nucleotide-disulfide oxidoreductase domain 1)	DRSC02098	1.57e6	1.62e6	1.21e6	3.06e5
Or13a (Odorant receptor 13a)	DRSC20265	1.54e6	1.58e6	1.11e6	1.24e6
e(r) (enhancer of rudimentary)	DRSC18768	5.95e5		8.60e5	
Ir68b (Ionotropic receptor 68b)	DRSC10251	1.24e6	1.26e6	1.45e6	1.53e6
CG11593	DRSC08206	1.34e6	1.39e6	9.68e5	1.14e6
eIF3d1 (eukaryotic translation initiation factor 3 subunit d1)	DRSC16938	1.14e6	1.19e6	7.79e5	9.25e5
hmw (hemingway)	DRSC16277	1.61e6	1.70e6	1.29e6	1.35e6
ida (imaginal discs arrested)	DRSC08163	1.57e6	1.47e6	8.94e5	1.16e6
Hacd1 (3-hydroxyacyl-CoA dehydratase 1)	DRSC02988	1.33e6	1.36e6	1.08e6	1.15e6
CG17329	DRSC01926	1.61e6	1.65e6	1.32e6	1.56e6
CG9815	DRSC04567	1.55e6	1.59e6	1.23e6	1.35e6
stol (stolid)	DRSC01956	1.48e6	1.56e6	1.21e6	1.38e6
CG13460	DRSC10007	1.24e6	1.43e6	1.26e6	1.39e6
CG16710	DRSC15136	1.68e6	1.74e6	9.82e5	1.13e6
Act88F (Actin 88F)	DRSC14105	1.29e6	1.30e6	9.33e5	1.06e6
Cht7 + tRNA:Cys-GCA-1-4 + tRNA:Lys-CTT-1-13	DRSC08021	1.42e6	1.37e6	1.03e6	1.15e6
RpL3 (Ribosomal protein L3)	DRSC16834	9.83e5 (active)	9.78e5	6.42e5	7.59e5
rdgC (retinal degeneration C)	DRSC11387	1.78e6	1.94e6	1.42e6	1.62e6
Rbp4 (RNA-binding protein 4)	DRSC16818	1.29e6	1.48e6	1.10e6	1.25e6
CR40450 + CG32767	DRSC18387	5.00e5		6.98e5	
CG2680	DRSC18466	1.54e6	1.54e6	1.03e6	1.13e6
l(2)37Cd (lethal (2) 37Cd)	DRSC02069	1.39e6	1.43e6	1.25e6	1.27e6
CG14298	DRSC14777	1.41e6	1.55e6	9.75e5	1.01e6
CG34348	DRSC19425	1.59e6	1.50e6	1.08e6	1.22e6
CG34348	DRSC19644	1.59e6	1.47e6	1.19e6	1.28e6
CG13614	DRSC14617	1.41e6	1.47e6	1.06e6	1.13e6
CG16952	DRSC19759	1.39e6	1.46e6	1.05e6	1.15e6
CG13901	DRSC08371	1.24e6	1.34e6	1.10e6	1.26e6
Rrp1 (Recombination repair protein 1)	DRSC00784	1.62e6	1.63e6	1.12e6	1.29e6
M7BP (Myosin-7a binding protein)	DRSC05932	9.77e5	1.31e6	8.59e5	9.22e5
CG3222	DRSC10355	1.38e6	1.25e6	1.17e6	1.32e6
CG17239	DRSC00492	1.45e6	1.51e6	1.06e6	1.18e6
slf (schlaff)	DRSC00583	1.49e6	1.37e6	1.11e6	1.22e6
CG15545	DRSC15083	1.52e6	1.55e6	1.06e6	1.12e6
CG33325	DRSC12699	1.56e6	1.49e6	1.11e6	1.24e6
knk (knickkopf)	DRSC15993	1.77e6	1.74e6	1.37e6	1.51e6
vrs (versager)	DRSC15832	1.58e6	1.71e6	1.38e6	1.50e6
Gbeta13F (G protein beta subunit 13F)	DRSC20247	5.71e5		9.34e5	
sax (saxophone)	DRSC07675	1.45e6	1.51e6	1.11e6	1.18e6
CG10996	DRSC19363	1.56e6	1.63e6	1.07e6	1.11e6
CG34028	DRSC17614	1.27e6	1.48e6	1.09e6	1.08e6
